Reference: the supplement of paper PMC8256030
“And” between values parts separate entries of the source, which are not always exact repeats. Equal values may be shown once. Some of the results follow. This data set is noisy: repeats of one test often differ as much as different tests do.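 HEK293T cells were given each compound shortly before transfection with a reporter in which red mCherry is followed by the SARS-CoV-2 frameshift element and then GFP in the −1 frame, so GFP appears only after frameshifting.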

Each compound was assayed on HEK293T (assay: percent viability (nuclei count) relative to control; higher = more viable cells). Settings: 10 µM; 24 h.

Point of comparison: `O=C(Nc1ccccc1)c1ccccc1O`, percent viability 393%. Against it:
- O=S1(=O)c2cccc3cccc(c23)N1CCCN1CCN(c2ccc(F)cc2)CC1 [fananserin] — lower, 137%
- Cc1onc(-c2ccccc2Cl)c1C(=O)N[C@@H]1C(=O)N2[C@@H]1SC(C)(C)[C@@H]2C(=O)O — lower, 133%
- C[N+](C)(C)CC(O)CC(=O)[O-] (stereo not given) — lower, 67.7%
- [O-][S+](c1cc(Cl)cc(Cl)c1O)c1cc(Cl)cc(Cl)c1O [bithionoloxide] — lower, 180%
- Cc1cc(-c2ccccc2)nnc1NCCN1CCOCC1 [minaprine] — lower, 147%
- N[C@@H](Cc1cc(I)c(Oc2cc(I)c(O)c(I)c2)c(I)c1)C(=O)O [L-thyroxine] — lower, 152%
- CC12CCC(CC1)C(C)(C)O2 — lower, 145%
- O=C(O)CCC/C=C\CC1C(O)CC(O)C1/C=C/C(O)COc1cccc(Cl)c1 (stereo not given) [cloprostenol] — lower, 284%
- Nc1nccs1 [aminothiazole] — lower, 329%
- COc1ccc(N(CCCC(=O)O)C(=O)c2ccc(Cl)cc2)cc1 [clanobutin] — lower, 358%
- Nc1ccc(S(=O)(=O)NC(=O)c2ccccc2)cc1 [sulfabenzamide] — lower, 133%
- COc1ccc2c(c1)N(C[C@H](C)CN(C)C)c1ccccc1S2 [Levoprome] — lower, 329%
- Nc1nc(=O)c2nc(CNc3ccc(C(=O)N[C@@H](CCC(=O)O)C(=O)O)cc3)cnc2[nH]1 — lower, 277%
- CCCC(CCC)C(N)=O [valpromide] — lower, 91.8%
- N[C@@H](CC(=O)O)C(=O)O [aspartic acid] — lower, 113%
- COc1ccccc1OCCOCCOCCN1CCCCC1 [guaiapate] — lower, 157%
- CC[C@H]1OC(=O)[C@H](C)C(=O)[C@H](C)[C@@H](O[C@@H]2O[C@H](C)C[C@H](N(C)C)[C@H]2O)[C@](C)(OC)C[C@@H](C)C(=O)[C@H](C)[C@H]2N(CCCCn3cnc(-c4cccnc4)c3)C(=O)O[C@]12C [telithromycin] — lower, 226%
- COCC1=C(C(=O)OC(C)OC(=O)OC(C)C)N2C(=O)[C@@H](NC(=O)/C(=N\OC)c3csc(N)n3)[C@H]2SC1 (stereo not given in full) — lower, 370%
- CCCCc1nc(Cl)c(CO)n1Cc1ccc(-c2ccccc2-c2nnn[nH]2)cc1 [Cozaar] — lower, 67.6%
- Cc1cc(CC(C)CC(C)(C)C)n(O)c(=O)c1 (stereo not given) — lower, 63.7%
- CN(CCCCCCCCCCN(C)C(=O)Oc1cccc([N+](C)(C)C)c1)C(=O)Oc1cccc([N+](C)(C)C)c1 [Humorsol] — lower, 200%
- CN(CCOc1ccc(NS(C)(=O)=O)cc1)CCc1ccc(NS(C)(=O)=O)cc1 [dofetilide] — lower, 207%
- COC(=O)C1=C(C)NC(C)=C(C(=O)OC(C)(C)CN(C)CCC(c2ccccc2)c2ccccc2)C1c1cccc([N+](=O)[O-])c1 (stereo not given) [lercanidipine] — lower, 197%
- O=C(O)Cc1csc(-c2ccc(Cl)cc2)n1 [fenclozic acid] — lower, 148%
- CC(O)(CC(=O)O)CC(=O)O [meglutol] — lower, 346%
- Cc1ccccc1OCC(O)CO (stereo not given) [mephenesin] — lower, 330%
- CCN(CC)Cc1cc(Nc2ccnc3cc(Cl)ccc23)ccc1O [amodiaquine] — lower, 280%
- CCCOc1cc(N)ccc1C(=O)OCCN(CC)CC — lower, 289%
- CN1C(C(=O)Nc2ccccn2)=C(O)c2sccc2S1(=O)=O — lower, 317%
- CONC(=O)Nc1ccc(-c2sc3c(c2CN(C)Cc2ccccc2)c(=O)n(-c2ccccc2)c(=O)n3Cc2c(F)cccc2F)cc1 [sufugolix] — lower, 229%
- CCCCCCOc1ccccc1C(N)=O [exalamide] — lower, 281%
- CCN(CC)CCOC(=O)C1(C2CCCCC2)CCCCC1 [dicycloverine] — lower, 131%
- O=CNc1ncc([N+](=O)[O-])s1 [forminitrazole] — lower, 183%
- O=C(N[C@@H](Cc1c[nH]c2ccccc12)C(=O)O)c1ccc(Cl)cc1 [benzotript] — lower, 269%
- CN1C(C(=O)Nc2ccccn2)=C(O)c2sccc2S1(=O)=O [tenoxicam] — lower, 280%
- CC(=O)Nc1ccc(C(=O)O)cc1 [acedoben] — lower, 213%
- CO[C@H](C(=O)[C@@H](O)[C@@H](C)O)[C@@H]1Cc2cc3cc(O[C@H]4C[C@@H](O[C@H]5C[C@@H](O)[C@H](O)[C@@H](C)O5)[C@H](O)[C@@H](C)O4)c(C)c(O)c3c(O)c2C(=O)[C@H]1O[C@H]1C[C@@H](O[C@H]2C[C@@H](O[C@H]3C[C@](C)(O)[C@H](O)[C@@H](C)O3)[C@@H](O)[C@@H](C)O2)[C@H](O)[C@@H](C)O1 [plicamycin] — lower, 18.6%
- CCN(CC)c1nc(=NN)nc(N(CC)CC)[nH]1 [meladrazine] — lower, 45.4%

In the case of `C=C[C@H]1CN2CC[C@H]1C[C@@H]2[C@@H](O)c1ccnc2ccc(OC)cc12`, the percent viability is reported as 174% and 179%.
